Assay results taken from patent US11858925B2, “GAS41 inhibitors and methods of use thereof” (The Regents of the University of Michigan, priority 2020, dated 2024).
For at least one compound, name, drawing or mass did not settle the structure.

By UniProt entry, the sequences of proteins in these tests, tags left out. Residues count along the entry.
UniProt O95619, whole entry W93A: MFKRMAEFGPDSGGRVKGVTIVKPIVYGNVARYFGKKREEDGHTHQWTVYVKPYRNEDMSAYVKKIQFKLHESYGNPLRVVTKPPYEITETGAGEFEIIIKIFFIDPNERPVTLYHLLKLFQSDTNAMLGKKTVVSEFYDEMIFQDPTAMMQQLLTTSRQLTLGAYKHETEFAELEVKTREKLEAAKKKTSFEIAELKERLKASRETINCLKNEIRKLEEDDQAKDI
UniProt O95619, 13-158 limits assumed: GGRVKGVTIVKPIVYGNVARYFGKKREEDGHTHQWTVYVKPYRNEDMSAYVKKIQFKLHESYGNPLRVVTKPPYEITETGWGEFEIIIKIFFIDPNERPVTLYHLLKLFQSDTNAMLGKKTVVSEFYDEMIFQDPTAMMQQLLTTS
UniProt O95619, 15-158 limits assumed: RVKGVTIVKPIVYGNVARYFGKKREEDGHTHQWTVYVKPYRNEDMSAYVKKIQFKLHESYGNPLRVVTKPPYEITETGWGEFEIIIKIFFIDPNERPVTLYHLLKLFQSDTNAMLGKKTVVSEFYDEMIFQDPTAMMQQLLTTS

How the values were obtained:
[1] = tested on: E2F2, FOXM1, and MCM6 expression in H1299; experiment: Expression of GAS41 target genes in H1299 cells; format: cell-based; details: 7 days treatment, relative mRNA levels
[2] = target: T1, GAS41-W93A mutant interaction with H3.3 (Homo sapiens, UniProt O95619, W93A); experiment: NanoBiT assay, LgBiT-GAS41-W93A mutant and SmBiT-H3.3 in HEK293T cells; format: cell-based; details: 24 h treatment, 293T cells
T1 construct: expressed in transfected cells; host or cells: HEK293T

GAS41 YEATS domain = target: T2, GAS41 YEATS domain (Homo sapiens, UniProt O95619); experiment: AlphaScreen dimerization assay with his6-Gas41(13-158) and avi-Gas41-YEATS; format: binding; details: titration of his6-Gas41(13-158) and avi-Gas41-YEATS; Hook effect at highest concentrations
T2 construct: 500 nM his6-Gas41(13-158) and 250 nM avi-Gas41-YEATS were incubated; His-tagged and biotin-labeled Avi-tagged GAS41 YEATS domain constructs
Method: An AlphaScreen assay based on His-tagged and biotin-labeled Avi-tagged GAS41 YEATS domain constructs was developed. For dimerization experiments, 500 nM his6-Gas41(13-158) and 250 nM avi-Gas41-YEATS were incubated in 50 mM HEPES pH 7.5, 100 mM NaCl, 1 mM TCEP, 0.05% BSA, 0.01% Tween-20 in a 96-well ½-Area AlphaPlate incubated for 30 minutes. Compounds 221 and 223 were added to a final concentration of 250 nM at 1% DMSO. Nickel Chelate Acceptor AlphaScreen beads were added to a final concentration of 10 μg/mL and incubated for 1 hour. Streptavidin Donor AlphaScreen beads were added to a final concentration of 10 μg/mL and incubated for 2 hours. For competition experiments with the dimeric complex, 500 nM his-Gas41(13-158) and 250 nM avi-Gas41-YEATS were incubated in assay buffer with 250 nM dimeric inhibitor for 30 minutes before the addition of monomeric competitor. AlphaScreen beads were added as in previous experiments. Alpha signal was measured on a Pherastar plate reader.
The signal was further decreased at highest compound concentrations, and indicates saturation of YEATS domain via independent inhibitor molecules (Hook effect).

O=C(Nc1ccc(C(=O)N2CC(c3nc4ccccc4s3)C2)s1)[C@@H]1C[C@@H](OCCCCO[C@H]2CN[C@H](C(=O)Nc3ccc(C(=O)N4CC(c5nc6ccccc6s5)C4)s3)C2)CN1 [Compound 221]
expression of E2F2, FOXM1, and MCM6 [1]: statistically significant decrease | effect on luminescence signal for W93A GAS41 mutant [2]: did not reduce the signal | luminescence signal reflecting formation of the dimeric complex (GAS41 YEATS domain): increase of luminescence signal
